The text below walks through data of paper PMC8961497.

In experiment [1] the target is T1, ETS-domain containing protein (ELK1), endogenous in HGECs (human (endogenous in HGECs)) (UniProt P19419).
T1 sequence: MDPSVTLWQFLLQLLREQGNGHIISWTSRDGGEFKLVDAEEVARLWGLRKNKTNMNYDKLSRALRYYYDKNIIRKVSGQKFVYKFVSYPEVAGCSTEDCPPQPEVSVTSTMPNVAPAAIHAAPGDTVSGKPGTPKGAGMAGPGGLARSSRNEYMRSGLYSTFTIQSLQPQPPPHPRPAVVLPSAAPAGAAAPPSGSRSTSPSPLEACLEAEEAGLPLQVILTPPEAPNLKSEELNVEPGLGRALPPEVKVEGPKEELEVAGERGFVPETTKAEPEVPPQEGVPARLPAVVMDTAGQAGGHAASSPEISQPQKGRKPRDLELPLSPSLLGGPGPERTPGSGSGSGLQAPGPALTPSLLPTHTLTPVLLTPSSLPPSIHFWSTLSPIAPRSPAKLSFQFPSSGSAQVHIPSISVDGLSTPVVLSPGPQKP
The experiment can be described thus: co-IP; endogenous IP from HGEC lysates with antibodies against bach1, SETD8, ELK1 or IgG at 4 °C overnight, protein Dynabeads 6 h at 4 °C, washed 3 times with RIPA, Western blot. (In general: A western blot detects proteins with antibodies after separation by electrophoresis.)

Experiment [2] addresses T2, GST-ELK1 fusion protein (UniProt P19419).
T2 sequence: T1 sequence
The experiment can be described thus: pull-down; bought His-SETD8 and GST-ELK1 mixed 12 h at 4 °C in GST binding buffer, anti-His or anti-GST beads for 4 h more, washed three times, Western blot; both purified.

Results are given in words; binding and its absence hold for the method and conditions named. For some assays here: In cells and extracts the contact can be indirect. Some binding calls cover weakened binding; strength is not graded here. For some assays here: Where a sequence is shown, tags or fusion partners need not be part of it.

B1: SET domain-containing protein 8 (SETD8), endogenous in HGECs (protein, UniProt Q9NQR1 1-393)
chain: MGEGGAAAALVAAAAAAAAAAAAVVAGQRRRRLGRRARCHGPGRAAGGKMSKPCAVEAAAAAVAATAPGPEMVERRGPGRPRTDGENVFTGQSKIYSYMSPNKCSGMRFPLQEENSVTHHEVKCQGKPLAGIYRKREEKRNAGNAVRSAMKSEEQKIKDARKGPLVPFPNQKSEAAEPPKTPPSSCDSTNAAIAKQALKKPIKGKQAPRKKAQGKTQQNRKLTDFYPVRRSSRKSKAELQSEERKRIDELIESGKEEGMKIDLIDGKGRGVIATKQFSRGDFVVEYHGDLIEITDAKKREALYAQDPSTGCYMYYFQYLSKTYCVDATRETNRLGRLINHSKCGNCQTKLHDIDGVPHLILIASRDIAAGEELLYDYGDRSKASIEAHPWLKH
As for B1, the binding entry in experiment [1] was “binds”.

B2: His-SETD8 fusion protein (protein, UniProt Q9NQR1 1-393)
chain: B1 chain
On to B2, for which the binding result in experiment [2] is listed as “binds”.
